For 1 substance, binding results are on record in publication PMC6220267.

Amino acid sequences for entries named in this document (tags omitted). Residues count along the entry.
UniProt P02649, residues 19-317: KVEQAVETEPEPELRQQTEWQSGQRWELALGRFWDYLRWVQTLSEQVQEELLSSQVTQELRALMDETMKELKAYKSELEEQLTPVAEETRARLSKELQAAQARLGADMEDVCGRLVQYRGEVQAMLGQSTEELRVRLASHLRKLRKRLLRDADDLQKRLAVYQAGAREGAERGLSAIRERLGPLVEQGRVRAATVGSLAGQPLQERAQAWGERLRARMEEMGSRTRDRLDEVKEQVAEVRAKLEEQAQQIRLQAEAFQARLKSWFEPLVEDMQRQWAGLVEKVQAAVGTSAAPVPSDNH

This assay deals with T1, soluble TREML1‐Fc (human, soluble ectodomain) (human) (UniProt Q86YW5).
T1 sequence: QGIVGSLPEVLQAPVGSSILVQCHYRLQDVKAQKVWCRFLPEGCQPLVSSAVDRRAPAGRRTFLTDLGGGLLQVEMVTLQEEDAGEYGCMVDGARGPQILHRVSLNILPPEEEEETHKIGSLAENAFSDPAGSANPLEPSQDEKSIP
Put plainly: pull-down; media of HEK293T cells co-transfected with soluble TREM‐Fc and APOE3; TREM‐Fc captured on BSA pre-blocked anti-human IgG Fc agarose beads, washed with PBS 0.5% Triton; APOE3 detected with Ab947.

Results are given in words; binding and its absence hold for the method and conditions named. In cells and extracts the contact can be indirect. Where a sequence is shown, tags or fusion partners need not be part of it.

With “APOE3 (secreted into the media of co‐transfected HEK293T cells) (from UniProt P02649 19-317)”, the binding entry is reported as “no binding”.
